Data from US20030198976A1.
No constants are given. Whether binding was seen depends on the method and setting. Some binding calls cover weakened binding; strength is not graded here.

Sequences of proteins named here, by UniProt entry; tags and fusion partners are left off. A change or cut given only in a name is not applied to a line headed by its entry.
UniProt Q8TCW9: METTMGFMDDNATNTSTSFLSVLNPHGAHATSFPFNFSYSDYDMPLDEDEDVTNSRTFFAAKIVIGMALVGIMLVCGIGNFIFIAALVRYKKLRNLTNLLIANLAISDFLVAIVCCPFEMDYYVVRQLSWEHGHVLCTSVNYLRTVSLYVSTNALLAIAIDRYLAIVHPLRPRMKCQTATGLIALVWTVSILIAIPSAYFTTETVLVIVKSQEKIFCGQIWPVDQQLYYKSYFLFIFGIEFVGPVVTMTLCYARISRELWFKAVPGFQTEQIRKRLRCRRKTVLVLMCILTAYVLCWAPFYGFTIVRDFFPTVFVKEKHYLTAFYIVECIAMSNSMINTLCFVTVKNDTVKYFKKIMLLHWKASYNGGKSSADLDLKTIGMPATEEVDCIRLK

Molecular target: HGPRBMY14 polypeptide (novel human G-protein coupled receptor) (human) (UniProt Q8TCW9)
Experiment: phage display, random peptide library

Binder | binding
VWGNSLIVGRWDVVG [Peptide modulator of HGPRBMY14, SEQ ID NO:91 (…)] | binds
LFLEAWDLSDTPHLY [Peptide modulator of HGPRBMY14, SEQ ID NO:90 (…)] | binds
LFVDKWDLSNFWGGG [Peptide modulator of HGPRBMY14, SEQ ID NO:89 (…)] | binds
VDTFFEDIPWGFVLF [Peptide modulator of HGPRBMY14, SEQ ID NO:88 (…)] | binds

Other lines, results leading:

binding | Binder
binds | IGGVGDGLYVVSWDL [Peptide modulator of HGPRBMY14, SEQ ID NO:92 (…)]
binds | YFDWTEVPYLMLEEA [Peptide modulator of HGPRBMY14, SEQ ID NO:93 (…)]
